Out of some 400,000 compounds screened, about 13,000 (3.2%) were called active. The inconclusive results got no clear call from the source; some entries with a clear call stand among them for comparison. Calls come from the whole dose curve; as a rule, active = well fitted cell-killing curve with a large enough effect; inconclusive = small, poorly fitted or top-dose-only effect, or effect the other way; inactive = flat fitted curve, though single readings scatter. Potencies beside an inconclusive call are fits to weak or partial responses and may not hold up.
experiment: qHTS assay for MDR1-selective chemotherapeutics: Primary screen using the drug-selected MDR subline cells KB-V1; details: KB-V1 MDR cells viability, CellTiter-Glo, 72 h; activity change, negative = cytotoxicity: at 46.1 µM (top of the series); note: nearly all actives have a fitted effect of over 60% in size
How it was run: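 Luminescent ATP read-out (CellTiter-Glo, 10 min) measures survival of drug-selected KB-V1 MDR cells after 72 h, 37 degrees C compound exposure. Medium: phenol-red-free DMEM, 10% FBS. Values from fitted concentration-response curves.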
% is set by controls: 0 for no effect and ±100 for the full control effect; potency is the fitted concentration of half-maximal effect.

Row | SMILES | activity change, negative = cytotoxicity | Potency
1 | CC(=O)OC1CC2(C)C(=O)CCC2C2CCc3cc(O)ccc3C12 (configuration not stated) | inactive: 3.55% | 
2 | COc1ccc(C(C)C)cc1S(=O)(=O)N1CCN(c2ccccc2)CC1 |  | inconclusive: 4.11 µM [cytotoxic, full curve, poor fit]
3 | CCN(CC)C(=O)c1cc(-c2ccc3c(c2)OCO3)on1 | inactive: -10.3% | 
4 | Cc1ccc2nc(-c3ccncc3)c(NC3CCCCC3)n2c1 |  | active: 20.6 µM
5 | CCCCCn1c(=O)[nH]c2cc(C(=O)Nc3cc(C)cc(C)c3)ccc2c1=O |  | inconclusive: 29.1 µM [rising, single point]
6 | O=C1c2cccc(OCc3ccc(F)cc3)c2CCN1Cc1ccc(F)cc1 |  | active: 3.26 µM
7 | O=c1cc(-c2ccccc2Cl)oc2c(NS(=O)(=O)c3cccc4nsnc34)ccc(O)c12 | inactive: -0.977% | 
8 | CCc1cc2c(=O)c(-c3nc4ccccc4[nH]3)coc2cc1OC(=O)N1CCOCC1 |  | active: 3.26 µM
9 | Cc1ccc(C)c(NC(=O)CN2CCCN(Cc3cccc(Cl)c3)S2(=O)=O)c1 |  | inconclusive: 7.31 µM [cytotoxic, partial curve]
10 | COC(=O)c1ccc(C(=O)OC)c(NC(=O)c2cnc3n(c2=O)CCS3)c1 |  | inconclusive: 3.66 µM [cytotoxic, full curve]
11 | Cc1ccc(C)c(OCC(=O)NCCNC(=O)COc2cc(C)ccc2C)c1 |  | active: 18.4 µM
12 | C=CCn1c(SCc2cc(=O)n3ccsc3n2)nc2sc(C)c(C)c2c1=O |  | inconclusive: 18.4 µM [cytotoxic, partial curve]
13 | O=C(N/N=C/c1c(O)n(-c2ccccc2Cl)c(=O)c2ccccc12)c1cccnc1 |  | inconclusive: 29.1 µM [rising, single point]
14 | CCN(CC(=O)Nc1ccccc1OC)CC(=O)Nc1c(Cl)ccc(C)c1Cl |  | inconclusive: 18.4 µM [cytotoxic, partial curve, poor fit]
15 | Cc1cccc(N2C(=O)N(CC(=O)C(C)(C)C)c3ccccc3S2(=O)=O)c1C | inactive: 6.1% | 
16 | CC1=NOC(=O)/C1=C\c1ccc2c(c1)OCO2 |  | inconclusive: 0.0092 µM [rising, full curve, poor fit]
17 | Cc1cc2oc(C(=O)Nc3ccc(S(N)(=O)=O)cc3)cc(=O)c2cc1C | inactive: 7.9% | 
18 | CC1(C)Cc2c(sc3nnn(Cc4ccccc4)c(=O)c23)CO1 | inactive: -1.73% | 
19 | COCCn1c(SCC(=O)OCc2ccccc2)nc2c1c(=O)[nH]c(=O)n2C | inconclusive: 2.81% | 
20 | COc1ccc(/C=C/c2nccc3ccccc23)cc1OC |  | inconclusive: 29.1 µM [cytotoxic, single point]
21 | COc1ccccc1N1CCN(c2ncnc3c2cnn3-c2cc(Cl)ccc2C)CC1 |  | inconclusive: 25.9 µM [cytotoxic, single point]
22 | COc1ccc(CN2CCN(CCSc3ccc(C)cc3)CC2)c(OC)c1OC |  | inconclusive: 2.06 µM [cytotoxic, full curve, poor fit]
23 | CCC1Oc2ccccc2N(CC(=O)NC2CCCC2)C1=O (configuration not stated) |  | inconclusive: 13 µM [rising, partial curve]
24 | COCCNC(=O)CSc1ccc(C)cc1 |  | inconclusive: 20.6 µM [rising, partial curve, poor fit]

Retrieved by structure from the list above:
Row | SMILES | activity change, negative = cytotoxicity | Potency
5 | CCCCCn1c(=O)[nH]c2cc(C(=O)Nc3cc(C)cc(C)c3)ccc2c1=O |  | inconclusive: 29.1 µM [rising, single point]
11 | Cc1ccc(C)c(OCC(=O)NCCNC(=O)COc2cc(C)ccc2C)c1 |  | active: 18.4 µM
23 | CCC1Oc2ccccc2N(CC(=O)NC2CCCC2)C1=O (configuration not stated) |  | inconclusive: 13 µM [rising, partial curve]
19 | COCCn1c(SCC(=O)OCc2ccccc2)nc2c1c(=O)[nH]c(=O)n2C | inconclusive: 2.81% | 

Later entries

Row | SMILES | activity change, negative = cytotoxicity | Potency
25 | O=C(NCc1cccc(C(F)(F)F)c1)c1ccc2c(c1)OCO2 | inactive: 9.87% | 
26 | CN(c1ccccc1)S(=O)(=O)c1cc(C(=O)Nc2nc3ccccc3[nH]2)ccc1Cl |  | active: 3.66 µM
27 | CCCC(=O)Nc1ccc(-c2nc3ncccc3o2)cc1 |  | inconclusive: 29.1 µM [cytotoxic, single point]
28 | O=C(/C=C\c1ccc2c(c1)OCO2)CC1(O)C(=O)Nc2ccccc21 (configuration not stated) | inactive: -22.3% | 
29 | CCOC(=O)c1ccccc1NC(=S)N1CCC(N2CCCCC2)CC1 |  | inconclusive: 5.8 µM [cytotoxic, full curve]
30 | CC1CCC(NC(=O)Cn2c(=O)[nH]c3ccsc3c2=O)CC1 (configuration not stated) |  | inconclusive: 20.6 µM [cytotoxic, partial curve, poor fit]
31 | O=c1nccc(N/N=C/c2ccccc2O)[nH]1 | inactive: 0% | 
32 | Nc1c(C(=O)NCc2ccccc2)nnn1Cc1cccc(Cl)c1 |  | active: 9.2 µM
33 | O=[N+]([O-])c1cccc2c1ccc1ncccc12 | inactive: -14.2% | 
34 | O=P(COCCO)(c1ccccc1)c1ccccc1 |  | inconclusive: 29.1 µM [rising, single point]
35 | CC(C)C(=O)NC(c1ccc([N+](=O)[O-])cc1)c1c(O)ccc2ccccc12 (configuration not stated) |  | inconclusive: 20.6 µM [cytotoxic, single point]
36 | CC(C)c1cn(CC[C@@H]2CC[C@@H](NC(=O)C3CCCCC3)[C@@H](CO)O2)nn1 | inactive: 0.334% | 
37 | COc1cc([N+](=O)[O-])cc(/C=N/NC(=O)Cn2nccc2C)c1O |  | inconclusive: 29.1 µM [cytotoxic, single point]
38 | Cc1cc(NC(=O)CSc2nnc(-c3ccco3)n2Cc2ccccc2)no1 |  | inconclusive: 29.1 µM [cytotoxic, single point]
39 | C=CCN(c1cccc(C(F)(F)F)c1)S(=O)(=O)c1cccc(C(=O)OCC(=O)NC)c1 | inactive: 6.73% | 
40 | Cc1ccc(N2CCN(c3ccc(NCc4nc5ccccc5n4C)cc3)CC2)cc1 |  | active: 4.61 µM
41 | Cc1ccc(S(=O)(=O)NCC(=O)OC(C)C(=O)NCc2ccc3c(c2)OCO3)cc1 (configuration not stated) | inactive: 15.6% | 
42 | Cc1cc(C(=O)N2CCN(c3ncccn3)CC2)c(C)o1 | inactive: 4.05% | 
43 | COc1ccc(OCc2ccc(-c3nc4ccccc4c(=O)n3N)o2)cc1 |  | inconclusive: 16.4 µM [cytotoxic, single point]
44 | Cc1ccnc2c(N3C(=O)C4C5c6ccccc6C(c6ccccc65)C4C3=O)cccc12 (configuration not stated) |  | inconclusive: 29.1 µM [cytotoxic, single point]
45 | CCOC(=O)c1ccc(N2C(=O)c3[nH]nc(-c4ccc(C)cc4)c3C2c2cccc(F)c2)cc1 (configuration not stated) |  | inconclusive: 25.9 µM [cytotoxic, single point]
46 | Cc1cccc(C)c1Nc1nnc(SCC(=O)NCCCN2CCCC2=O)s1 |  | inconclusive: 29.1 µM [cytotoxic, single point]
47 | Cc1ccc(CSc2nc3ccc(NC(=O)COc4ccccc4)cc3s2)cc1 | inconclusive: 31.2% | 
48 | COc1cc(-c2cc(N)n(S(=O)(=O)c3ccc(F)cc3)n2)cc(OC)c1OC |  | inconclusive: 9.2 µM [cytotoxic, partial curve, poor fit]

Row | SMILES | activity change, negative = cytotoxicity | Potency
49 | Nc1nc(N)nc(-c2cc(O)ccc2O)n1 | inactive: -6.9% | 
50 | Cc1c(Cl)cccc1NC(=O)c1cccc(NC(=O)N2CCSc3ncccc32)c1 |  | inconclusive: 29.1 µM [cytotoxic, single point]
51 | O=c1[nH][nH]c2c1[C@H](c1ccccc1)O[C@H](C1CCCCC1)C2 |  | inconclusive: 2.31 µM [rising, full curve, poor fit]
52 | Cc1ccc(Cn2c(C)c(C(=O)NCC(C)C)sc2=O)cc1 |  | active: 13 µM
53 | Cn1cc([N+](=O)[O-])c(C(=O)NC2CCCC2)n1 |  | inconclusive: 18.4 µM [rising, single point]
54 | CC(C)(C)c1ccc(C(=O)N2CCOC23CCCCC3)cc1 | inactive: -2.31% | 
55 | O=C1OCCN1C(=O)[C@H]1[C@H](c2ccc(Cl)cc2)C(c2cccc(Cl)c2)=NN1c1ccccc1 | inactive: 10.7% | 
56 | O=C(NCc1ccc(F)cc1)NC(=O)c1ccc(Cl)cc1 |  | inconclusive: 6.51 µM [rising, partial curve]
57 | CCOc1ccc(NC(=O)CSC2=Nc3ccccc3C3=NC(CCC(=O)NCc4ccccc4)C(=O)N23)cc1 (configuration not stated) | inactive: -9.84% | 
58 | Cc1cc(N/N=C/c2c(O)ccc3ccccc23)nc(-c2ccccc2O)n1 |  | inconclusive: 2.06 µM [cytotoxic, full curve]
59 | Cc1cc(NC(=O)Nc2ccccc2F)ccc1Br |  | inconclusive: 25.9 µM [cytotoxic, partial curve, poor fit]
60 | Cc1ccccc1OCc1nnc(SCc2cc(=O)[nH]c3ccccc23)n1-c1ccccc1 |  | active: 16.4 µM
61 | O=C(COc1ccc(Br)cc1)N(Cc1ccccc1)c1ccccn1 |  | active: 18.4 µM
62 | Cc1cccc(Cn2c(=O)c3c(nc4n3CCCN4Cc3ccccc3)n(C)c2=O)c1 |  | inconclusive: 20 µM [cytotoxic, single point]
63 | CN[C@H]1CCc2cc(OC)c(OC)c(OC)c2-c2ccc(N(C)CC(OC)OC)c(=O)cc21 |  | inconclusive: 20.6 µM [cytotoxic, partial curve, poor fit]
64 | Cc1ccc2c(CC(=O)Nc3sccc3C(N)=O)coc2c1 |  | inconclusive: 29.1 µM [cytotoxic, single point]
65 | N=c1sccn1CC(=O)Nc1ccc([N+](=O)[O-])cc1Cl |  | inconclusive: 32.6 µM [rising, single point]
66 | COc1nc(Nc2ccc([N+](=O)[O-])cc2)nc(NC(C)C)n1 |  | active: 11.6 µM
67 | O=C(COC(=O)c1cccs1)Nc1ccccc1C(F)(F)F |  | inconclusive: 29.1 µM [rising, single point]
68 | COc1ccccc1N1CCN(C(=O)c2cccc(S(=O)(=O)N3CCCCCC3)c2)CC1 |  | inconclusive: 29.1 µM [cytotoxic, single point]
69 | CC(C)N1CCN(c2ccc(OCC3COC(Cn4cncn4)(c4ccc(Cl)cc4Cl)O3)cc2)CC1 (configuration not stated) |  | active: 1.16 µM
70 | Cc1cc(C(F)(F)F)n2nc(-c3ccc(Br)cc3)cc2n1 |  | inconclusive: 10.3 µM [rising, partial curve]
71 | c1ccc(C(c2nnnn2C2CCCC2)N2CCN(c3ccccc3)CC2)cc1 (configuration not stated) |  | inconclusive: 13 µM [cytotoxic, partial curve, poor fit]
72 | O=C(Nc1cccc(/C=C/c2ccccn2)c1)c1ccc(-n2cncn2)cc1 |  | inconclusive: 0.0116 µM [rising, full curve, poor fit]

Reference: PubChem BioAssay AID1347076 (National Center for Advancing Translational Sciences (NCATS), 2019)
